We go through 2 substances from PMC3565976.

Protein sequences, listed by entry. Tags and fused reporters are not part of them.
UniProt O70201: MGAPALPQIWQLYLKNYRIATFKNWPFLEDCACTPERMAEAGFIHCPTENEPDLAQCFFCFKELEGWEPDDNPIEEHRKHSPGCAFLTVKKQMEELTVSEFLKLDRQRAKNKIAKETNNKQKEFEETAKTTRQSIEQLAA
UniProt A0A9J7CH92: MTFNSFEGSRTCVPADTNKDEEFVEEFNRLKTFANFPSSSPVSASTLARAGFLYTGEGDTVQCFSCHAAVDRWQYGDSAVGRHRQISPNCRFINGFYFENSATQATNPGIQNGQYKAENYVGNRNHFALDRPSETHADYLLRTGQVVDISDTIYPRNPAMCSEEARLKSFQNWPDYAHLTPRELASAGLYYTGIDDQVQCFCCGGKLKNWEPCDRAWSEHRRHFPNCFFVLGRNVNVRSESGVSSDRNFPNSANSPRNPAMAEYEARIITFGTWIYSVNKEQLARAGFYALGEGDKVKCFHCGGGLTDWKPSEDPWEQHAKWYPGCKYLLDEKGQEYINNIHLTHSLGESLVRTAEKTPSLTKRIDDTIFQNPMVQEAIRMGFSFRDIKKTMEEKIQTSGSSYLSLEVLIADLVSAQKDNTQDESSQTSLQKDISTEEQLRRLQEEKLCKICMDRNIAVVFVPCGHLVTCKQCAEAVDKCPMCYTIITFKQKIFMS

Results are given in words; binding and its absence hold for the method and conditions named. Binding seen in cells or lysates may run through a third protein. Some entries that bind do so weakly or less than the wild type.

The target of test [1] is enhanced green fluorescence protein-tagged Survivin (EGFP-Survivin) (mouse) (UniProt O70201). As to the kind of experiment: co-IP; detergent-soluble cytoplasmic fraction of CHE-p53-/- cells transfected with pEGFP-Survivin; precipitated with rabbit anti-XIAP polyclonal antibody on protein A Dynabeads and blotted with anti-GFP, and the reverse (anti-GFP precipitate blotted with anti-XIAP).

Test [2] has as its target X-linked inhibitor of apoptosis protein (XIAP) (Chinese hamster (endogenous in CHE cells)). The description is as above.

For the substance “X-linked inhibitor of apoptosis protein (XIAP) (from UniProt A0A9J7CH92 1-496)”, the binding result in test [1] is given as “binds”. “enhanced green fluorescence protein-tagged Survivin (EGFP-Survivin) (from UniProt O70201 1-140)”: the binding result in test [2] is given as “binds”.
